System: TNF-α production
Assay: LPS-induced TNF-α production in culture of mice peritoneal macrophage (ELISA)
Type: cell-based
Conditions: mouse peritoneal macrophages, at least five concentrations, range tested in parentheses, read-out: TNF-α Inhibition IC50
Experimental: We initially investigated the capacity of our N-acylhydrazone derivatives 4a–g to inhibit TNF-α production in vitro [21]. The p38 MAPK inhibitor SB-203580 (1) was chosen as a standard. As depicted in Table 2, six NAH compounds 4a, 4b, 4c, 4d, 4f and 4g inhibited the in vitro LPS-induced production of TNF-α in cultured mouse peritoneal macrophages at a concentration of 10 µM.
BALBc mice were stimulated with thyoglicollate 3% (1 mL/mice; i.p.) and 3 days later the peritoneal cavity were washed with RPMI 1640 and the peritoneal macrophages were plated onto 96-wells plate (30.000 cells/well) for 1 hour at 37°C in an humidified 5% CO2 atmophere. Then, macrophages were incubated with the vehicle or compounds and 1 hour later stimulated with LPS (100 ng/mL) for 24 hour when the supernatants were collected to evaluate TNF-α production by ELISA kit (BD Bioscience).

C[S+]([O-])c1ccc(-c2nc(-c3ccncc3)c(-c3ccc(F)cc3)[nH]2)cc1 (stereo not shown) [SB-203580 (1), SB-203580, reference compound]
IC50: 220 nM
